Assay results published in US8012751B2, “Differentiation of pluripotent embryonic stem cells” (Wisconsin Alumni Research Foundation, priority 2005, dated 2011).
At least one structure is not confirmed: it was looked up by name or label, or the drawing left a doubt.

System: caspase-3 activity in ES cells
Assay: caspase activity in whole cell lysate after induction of differentiation
Assay type: cell-based
Conditions: around 3 to 6 hours after induction with retinoic acid

CC1=C(/C=C/C(C)=C/C=C/C(C)=C/C(=O)O)C(C)(C)CCC1 [retinoic acid]
caspase-3 activity after induction of differentiation: sharp peak in caspase-3 activity
